# Laboratory results published in PubChem BioAssay AID2685 (National Center for Advancing Translational Sciences (NCATS), 2010).
# This is one part of the list. Shown are side measurements of this screen, not its main read-out; they come without a call. The list favours compounds with an active or inconclusive main result. Words in brackets tell the shape of the fitted curve; partial curves, single points and poor fits give uncertain potencies.
# Experiment: qHTS Assay for Lipid Storage Modulators in Drosophila S3 Cells;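 as to cell number change: cells counted by Cell Tracker Red CMTPX staining in the red channel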
# Settings: BODIPY lipid droplet fluorescence, 18-24 h; for cell number change: measured here: cell count max response, cells fed with added oleic acid
# Procedure, shortened: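 Drosophila S3 cells got compounds at several concentrations plus oleic acid (400 uM solution). Laser-scanning cytometry with 488 nm excitation read lipid droplets at 500-530 nm and cells at 575-640 nm. Percent activity was relative to 20 uM Triacsin C.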
# [1] = measured here: cell number channel AC50, cells fed with added oleic acid
# [2] = measured here: lipid fluorescence (Fed channel) AC50, cells fed with added oleic acid
SMILES,cell number change,AC50 [1],AC50 [2]
O=C(CN1C(=O)C2C3C=CC(C3)C2C1=O)Nc1nc(SCc2ccc(Cl)cc2)n[nH]1 (centres undefined),-10.8%,,
CC(C)(C)NC(=O)CSc1ncnc2c1nnn2Cc1ccccc1Cl,-32.6%,"29.1 µM [falling, single point]","29.1 µM [falling, single point]"
O=C(Nc1cc2ccccc2oc1=O)C1CCCCC1,31.4%,"18.4 µM [rising, partial curve]","0.291 µM [rising, full curve, poor fit]"
O=C(/C=C/c1cccc2ccccc12)NCCC1=CCCCC1,-12.6%,,"0.517 µM [falling, single point]"
CC(=O)Oc1ccccc1/C=C1\CCOC1=O,-62.2%,"5.17 µM [falling, full curve]","29.1 µM [falling, single point]"
COc1ccc(-c2ccc(=O)n(CC(=O)Nc3cccc(O)c3)n2)cc1OC,-5.31%,,"3.26 µM [rising, single point]"
Cc1cccc(-n2c(-c3csc(C(C)C)c3)n[nH]c2=S)c1,-20.2%,,"23.1 µM [rising, partial curve]"
COCCC(=O)N1CCC(Oc2ccc(C(=O)NC3CCOC(C)(C)C3)cc2)CC1 (centres undefined),-8.78%,,"6.51 µM [falling, single point]"
Cc1nn(C(C)C(=O)NC2CCCCCC2)c(=O)c2nn(-c3ccccc3)c(C)c12 (centres undefined),-16.5%,,
N/C(=N\OC(=O)C12CC3CC(CC(C3)C1)C2)c1ccccn1,-45.1%,"29.1 µM [falling, single point]","29.1 µM [falling, single point]"
c1cncc(-c2nc3ccccn3c2Nc2ccc3c(c2)OCCO3)c1,,"6.51 µM [rising, single point]","6.51 µM [rising, single point]"
COc1cc(C(=O)NCC(=O)N/N=C/c2ccc(-c3cccc([N+](=O)[O-])c3)o2)cc(OC)c1OC,14.3%,,
CCCn1c(N)c(N(CCOC)C(=O)COC(=O)CSc2cc(C)c3ccccc3n2)c(=O)[nH]c1=O,,,"2.06 µM [rising, partial curve]"
Cc1ccc(OC(=O)CCC(=O)OCCCC(F)(F)C(F)(F)F)cc1,-11.7%,"0.00461 µM [falling, full curve, poor fit]","0.731 µM [falling, full curve]"
CN(C)c1ccc(/C=C/C=C2/SC(=S)N(c3ccccc3)C2=O)cc1,-54.3%,"25.9 µM [falling, single point]",
CC(=O)c1cnc2sccn2c1=O,-26.5%,,
CCn1cc(C(=O)O)c(=O)c2cnc(N3CCN(C(=S)NC(=O)c4ccc(OC)cc4)CC3)nc21,9.72%,,
CC1(C)NC(=O)N(CC(=O)Nc2cc(S(=O)(=O)N3CCOCC3)ccc2N2CCOCC2)C1=O,29.8%,,
CC(C)C[C@H](NC(=O)OC(C)(C)C)C(=O)N/N=C/C1=Cc2ccccc2OC1C (some centres undefined),32.5%,"8.2 µM [rising, partial curve]","20.6 µM [rising, partial curve]"

SMILES,cell number change,AC50 [1],AC50 [2]
CN1C(=O)C(O)(C2COC(C)(C)CC2=O)c2cc(Br)ccc21 (centres undefined),-12%,,"6.51 µM [falling, single point]"
Cc1ccccc1C(=O)N1CCN(c2ccc(N3CCOCC3)nn2)CC1,-36.3%,"20.6 µM [falling, single point]","18.4 µM [falling, single point]"
O=c1c2ccccc2nnn1CSc1ccccc1F,19.7%,,"0.0461 µM [falling, full curve, poor fit]"
Cc1cc([N+](=O)[O-])nn1CC(=O)NCCCN1CCOCC1,14%,,
COc1cc(/C=N/NC(=O)C(=O)NCc2ccco2)cc(Br)c1O,-17.7%,,"4.11 µM [falling, partial curve, poor fit]"
CN(C)c1cc[n+](CC(=O)N2c3ccccc3Sc3ccccc32)cc1,9.77%,"6.51 µM [falling, single point]","6.51 µM [falling, single point]"
CCCCC1CCC(C(=O)Nc2ccc(N3CCOCC3)cc2N2CCOCC2)CC1 (centres undefined),-40.8%,"29.1 µM [falling, single point]","1.84 µM [rising, partial curve]"
COC(=O)c1[nH]c2ccccc2c1NC(=O)CN1CCC(C(N)=O)(N2CCCCC2)CC1,5.12%,,
CC(=O)Nc1cc(-c2nn(C)c(=O)c3ccccc23)ccc1N1CCCCC1,38.1%,"2.06 µM [rising, full curve]",
O=C(COC(=O)c1ccc(N2CCCC2=O)cc1)Nc1ccccc1,8.06%,,"0.0517 µM [falling, full curve, poor fit]"
CC(/C=N/NC(=O)Cn1cnc2c1c(=O)n(C)c(=O)n2C)=C\c1ccccc1,31.1%,"9.2 µM [rising, partial curve, poor fit]","10.3 µM [rising, partial curve, poor fit]"
COc1ccc([C@H]2CC(=O)C=C(c3ccccc3)C2)cc1,-12.2%,,"0.461 µM [rising, full curve, poor fit]"
CCOC(=O)CC1(NC(=O)c2cc(COc3cccc(OC)c3)on2)CCCCC1,-27.7%,,"1.84 µM [falling, partial curve]"
COc1ccc(CN2CCN(Cc3ccc4cc(F)ccc4n3)CC2CCO)c(C)c1C (centres undefined),-23.4%,,"20.6 µM [rising, single point]"
Cc1ccc(CCNC(=O)CC2Oc3ccc(C)cc3NC2=O)cc1 (centres undefined),8.81%,,"13 µM [rising, partial curve, poor fit]"
COc1ccc(CCNC(=O)COc2ncnc3ccccc23)cc1,-12.3%,,"8.2 µM [falling, partial curve, poor fit]"
Cc1nn(-c2cc(C)c3ccccc3n2)c2c1C1C(C2)C1(C)C (centres undefined),-22.8%,,"0.58 µM [falling, full curve, poor fit]"
Cc1cccc(NCCC(=O)c2ccc(Br)cc2)c1,107%,,

# 3 compounds out of the list, ordered by SMILES length, largest number first:
SMILES,cell number change,AC50 [1],AC50 [2]
COc1ccc(CN2CCN(Cc3ccc4cc(F)ccc4n3)CC2CCO)c(C)c1C (centres undefined),-23.4%,,"20.6 µM [rising, single point]"
Cc1ccc(CCNC(=O)CC2Oc3ccc(C)cc3NC2=O)cc1 (centres undefined),8.81%,,"13 µM [rising, partial curve, poor fit]"
O=c1c2ccccc2nnn1CSc1ccccc1F,19.7%,,"0.0461 µM [falling, full curve, poor fit]"
